From article PMC5651854
The exact form of at least one protein or probe is not confirmed. At least one verdict was read from the data and is not stated in words by the source.

Chains of the proteins cited; added tags and fusions are not shown. Lines headed by an entry give the natural chain unless they say otherwise; changes in a name come on top. A line that says so, or that is headed by a name, gives the form on record, which may keep a tag or linker.
UniProt Q9NUX5: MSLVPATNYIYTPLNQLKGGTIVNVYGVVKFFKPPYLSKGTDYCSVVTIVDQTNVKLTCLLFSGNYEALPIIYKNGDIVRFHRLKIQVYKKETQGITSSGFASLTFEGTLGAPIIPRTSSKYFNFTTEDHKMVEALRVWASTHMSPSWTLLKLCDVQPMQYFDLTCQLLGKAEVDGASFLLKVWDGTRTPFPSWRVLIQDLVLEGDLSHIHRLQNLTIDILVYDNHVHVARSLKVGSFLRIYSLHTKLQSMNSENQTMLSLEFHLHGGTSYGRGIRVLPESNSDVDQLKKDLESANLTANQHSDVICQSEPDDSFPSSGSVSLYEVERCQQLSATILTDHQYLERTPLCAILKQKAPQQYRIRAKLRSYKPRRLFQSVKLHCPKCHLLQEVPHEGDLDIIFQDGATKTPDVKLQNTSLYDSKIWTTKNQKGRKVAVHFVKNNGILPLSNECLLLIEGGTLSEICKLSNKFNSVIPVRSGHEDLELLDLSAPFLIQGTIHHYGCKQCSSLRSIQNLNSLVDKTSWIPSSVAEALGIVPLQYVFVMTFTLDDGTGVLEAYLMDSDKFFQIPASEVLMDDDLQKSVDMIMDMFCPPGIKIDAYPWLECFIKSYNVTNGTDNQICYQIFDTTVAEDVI
shelterin core(-POT1 +RAP1) (RAP1-TRF2-TIN2-TPP1) (Homo sapiens), one chain, as listed by the source, chain 3 of 4: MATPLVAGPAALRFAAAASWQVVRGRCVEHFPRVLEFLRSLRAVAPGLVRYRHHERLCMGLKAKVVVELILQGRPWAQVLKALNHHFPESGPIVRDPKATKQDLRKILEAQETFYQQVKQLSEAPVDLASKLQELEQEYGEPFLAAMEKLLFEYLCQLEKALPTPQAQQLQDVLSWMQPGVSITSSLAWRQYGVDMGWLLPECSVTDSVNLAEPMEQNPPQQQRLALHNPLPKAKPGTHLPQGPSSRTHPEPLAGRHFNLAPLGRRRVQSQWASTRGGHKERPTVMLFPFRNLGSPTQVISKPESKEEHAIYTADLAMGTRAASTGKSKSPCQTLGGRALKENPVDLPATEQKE
shelterin core(-POT1 +RAP1) (RAP1-TRF2-TIN2-TPP1) (Homo sapiens), one chain, as listed by the source, chain 1 of 4: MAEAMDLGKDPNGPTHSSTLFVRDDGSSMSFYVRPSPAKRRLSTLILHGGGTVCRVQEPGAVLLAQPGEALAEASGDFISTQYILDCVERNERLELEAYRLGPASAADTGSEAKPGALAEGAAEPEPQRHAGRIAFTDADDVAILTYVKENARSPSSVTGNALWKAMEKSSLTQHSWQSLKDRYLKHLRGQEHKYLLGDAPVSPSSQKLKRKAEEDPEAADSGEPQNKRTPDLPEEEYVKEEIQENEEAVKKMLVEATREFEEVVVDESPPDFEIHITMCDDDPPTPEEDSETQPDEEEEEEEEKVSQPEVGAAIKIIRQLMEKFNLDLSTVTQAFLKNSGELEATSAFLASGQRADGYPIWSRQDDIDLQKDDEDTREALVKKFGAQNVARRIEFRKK
shelterin core(-POT1 +RAP1) (RAP1-TRF2-TIN2-TPP1) (Homo sapiens), one chain, as listed by the source, chain 4 of 4: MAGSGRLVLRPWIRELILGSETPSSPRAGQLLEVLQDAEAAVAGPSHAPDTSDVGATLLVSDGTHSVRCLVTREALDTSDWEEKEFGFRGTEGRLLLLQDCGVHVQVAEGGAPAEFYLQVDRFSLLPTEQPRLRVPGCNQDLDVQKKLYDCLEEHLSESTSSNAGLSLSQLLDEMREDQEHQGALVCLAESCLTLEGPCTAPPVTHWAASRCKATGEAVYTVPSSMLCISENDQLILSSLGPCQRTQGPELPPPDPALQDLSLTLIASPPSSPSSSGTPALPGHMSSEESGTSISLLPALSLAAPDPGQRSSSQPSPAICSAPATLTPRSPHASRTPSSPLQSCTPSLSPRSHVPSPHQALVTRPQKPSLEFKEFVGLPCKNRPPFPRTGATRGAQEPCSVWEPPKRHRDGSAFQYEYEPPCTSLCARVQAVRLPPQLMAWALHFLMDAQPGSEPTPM
shelterin core(-POT1 +RAP1) (RAP1-TRF2-TIN2-TPP1) (Homo sapiens), one chain, as listed by the source, chain 2 of 4: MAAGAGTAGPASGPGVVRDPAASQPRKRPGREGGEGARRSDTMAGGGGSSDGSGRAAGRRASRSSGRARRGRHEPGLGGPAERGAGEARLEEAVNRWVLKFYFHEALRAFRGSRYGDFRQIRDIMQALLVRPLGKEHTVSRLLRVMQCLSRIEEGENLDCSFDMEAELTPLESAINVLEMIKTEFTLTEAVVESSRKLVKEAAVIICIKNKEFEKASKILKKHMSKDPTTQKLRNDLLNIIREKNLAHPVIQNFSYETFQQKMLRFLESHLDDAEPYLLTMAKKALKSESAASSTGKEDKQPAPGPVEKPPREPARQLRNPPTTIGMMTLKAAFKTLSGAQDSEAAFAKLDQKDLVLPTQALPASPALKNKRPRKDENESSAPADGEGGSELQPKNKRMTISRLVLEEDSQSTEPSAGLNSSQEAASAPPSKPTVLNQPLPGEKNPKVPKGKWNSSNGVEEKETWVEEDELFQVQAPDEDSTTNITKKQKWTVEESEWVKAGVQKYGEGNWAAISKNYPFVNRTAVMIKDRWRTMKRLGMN

Key:
[1] = tested on: shelterin core(-POT1 +RAP1) (RAP1-TRF2-TIN2-TPP1) (Homo sapiens); experiment: EMSA (agarose); settings: preferences unchanged vs core(-POT1); Agarose EMSA: 50 mM Tris-HCl pH 8.0, 150 mM KCl, 2 mM MgCl2, 1 mM DTT, 10% glycerol, 0.5 mg/ml BSA, 0.02 mg/ml carrier dsDNA, 30 min 23 C (gel at 4 C); recombinant protein; label: 5'-32P sense strand
POT1 (Homo sapiens) = POT1 (Homo sapiens) (UniProt Q9NUX5); experiment: EMSA (agarose); settings: 500 nM protein; Agarose EMSA: 50 mM Tris-HCl pH 8.0, 150 mM KCl, 2 mM MgCl2, 1 mM DTT, 10% glycerol, 0.5 mg/ml BSA, 0.02 mg/ml carrier dsDNA, 30 min 23 C (gel at 4 C); recombinant protein; protein details: His-MBP cleaved; label: 5'-32P on long strand (EMSA)

| Sequence | binding result [1] | binding result (POT1 (Homo sapiens)) |
| --- | --- | --- |
| GACCATGCTTAGGGTTAGGGTTATCATACAA (double strand) [ds-TEL] | binds |  |
| GACCATGCTTAGGGTTAGGGTTATCATACAAGTTAGGGTTAGGG / TTGTATGATAACCCTAACCCTAAGCATGGTC [C8] |  | binds |
